{"source": "patent US7390874B2", "about": "“Peptide, method of production thereof, and pharmaceutical composition containing the same” (Kuboyama Bio Ken, Inc., priority 2003, dated 2008)", "conditions": "mice, gavage for 11 days", "description": "One tenth (0.1 ml) of the above suspension is inoculated into the left hind leg muscle (hamstring muscle mass) of each mouse. The inoculated mice are placed into one large cage and then randomly segregated into groups of five mice. The mice are housed in shoe box cages on wood shavings with free access to water and laboratory chow. The mice are weighed on the day of inoculation, on day 7, day 12, at time of sacrifice.", "data": [{"molecule": "N=C(N)NCCC[C@H](NC(=O)[C@H](CO)NC(=O)CNC(=O)[C@@H](N)Cc1ccc(O)cc1)C(=O)N[C@@H](CO)C(=O)O", "note": "[Peptide, tyrosine-glycine-serine-arginine-serine]", "values": [{"measurement": "toxicity (in words, from weight gain)", "value": "no toxicity"}]}]}
